The test has as its target T1, FAP45 (flagellar-associated protein 45) (Chlamydomonas (endogenous in wild type axonemes)) (UniProt A8I9E8).
T1 sequence: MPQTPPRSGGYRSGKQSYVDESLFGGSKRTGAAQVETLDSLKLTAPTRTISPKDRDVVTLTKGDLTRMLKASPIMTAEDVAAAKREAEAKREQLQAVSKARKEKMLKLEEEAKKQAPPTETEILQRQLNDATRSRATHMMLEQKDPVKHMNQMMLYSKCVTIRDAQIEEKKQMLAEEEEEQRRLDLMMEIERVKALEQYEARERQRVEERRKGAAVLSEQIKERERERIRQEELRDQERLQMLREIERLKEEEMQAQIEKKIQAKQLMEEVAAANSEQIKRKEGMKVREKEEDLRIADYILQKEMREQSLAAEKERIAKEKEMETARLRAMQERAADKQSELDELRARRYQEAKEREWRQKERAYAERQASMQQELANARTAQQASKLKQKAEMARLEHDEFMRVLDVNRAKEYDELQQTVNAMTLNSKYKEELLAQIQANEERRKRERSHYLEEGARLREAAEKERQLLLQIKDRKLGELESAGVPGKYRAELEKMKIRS
The test can be described thus: cross-linking; isolated axonemes treated with EDC (zero-length crosslinker) in HMEK (30 mM Hepes-KOH pH 7.4, 5 mM MgSO4, 1 mM EGTA, 50 mM K-acetate), 60 min, room temperature; SDS-PAGE and western blot with anti-FAP45 and anti-FAP52 antibodies; wild type compared with fap45 and fap52 axonemes.

Results are given in words; binding and its absence hold for the method and conditions named. In cells and extracts the contact can be indirect. Some entries that bind do so weakly or less than the wild type. Where a sequence is shown, tags or fusion partners need not be part of it.

B1: FAP52 (flagellar-associated protein 52) (natural protein, UniProt A8ILK1 1-615, looked up)
chain: MAEPLVLNSVIGFGGAIENGLIAHPDGRTIIYPLGSTIVLRDRADPRSQEFLQGHSDKVSCLALSRSGRYLASGQITYMGFTADIIIWDLESKQLIHRMALHKVKVQALDFSCDERFLASLGGQDDNALVLWDVASGNAICGSPCNTNFTNCVKFFNNSPDKLITAGNFNMNVWTYDAGNNKLRPTDATLGTLKRVFKSVVVDANDEYAYCGTTTGDVLQIALERVLFKNTGPAKGNVQMGVTATCEVPTGDILVGGGDGSLQLLRKMPALAGTKVEGAITSIALADMNARGFTFFVGTAMCNIYKPATSRLKEELVQTAHNDKINGMAFPNEYSEVFATCGTGFIRLWHLTTCRELLRIAVPNLECFCIAFTTDGSAILSGWSDGKIRAFGPQSGKIIFTINDAHQKAVTAIASTADSSRILSGGEEGMVRVWRIGRTSQTLEASMKDHKGPVNCIRIKGSGDECVSASSDGSCILWDLHTFKRRTSLFANTFFKSVVYHPDESQLVTAGTDRKVTYWDAYDGNAIRIIDGSDLDEVNALAVDRDGEALVSGGGDKLVKLWGYDEGHCYFVGVAHSGAITAVGVTPDKQRIVSVGTEGGIFIWDYQRPQTLADI
notes: FAP52 of Chlamydomonas, ortholog of human WDR16, ~66 kDa, WD40 repeat protein; endogenous protein in the axoneme; also called FAP52/WDR16; MIP3a; source: endogenous, isolated wild type Chlamydomonas axonemes
With B1, the binding result is given as “binds”.

Values taken from article PMC6408466, “Inner lumen proteins stabilize doublet microtubules in cilia and flagella” (Nature Communications, 2019).
